Results published in PubChem BioAssay AID1487 (National Center for Advancing Translational Sciences (NCATS), 2009).
The list shows a part of the results. Further columns of the screen follow, without active or inactive calls. Most of these compounds were active or inconclusive in the main read-out, so they are no random draw. Words in brackets tell the shape of the fitted curve; partial curves, single points and poor fits give uncertain potencies.

Experiment: qHTS Assay for Modulators of Lamin A Splicing
Settings: HeLa LMNA splicing GFP/RFP minigene ratio, 48 h
Outline: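 S3 HeLa stable clones carrying a lamin A-EGFP splicing minigene plus DsRed2 were seeded at 600 cells/well in Opti-MEM with 2% FBS, pin-dosed and incubated 48 h at 37°C. Acumen cytometry (488 nm) gave the GFP/RFP total-intensity ratio.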

[1] = measured here: RFP viability control channel
[2] = measured here: GFP splicing reporter channel

| Structure (SMILES) | AC50 [1] | AC50 [2] |
| --- | --- | --- |
| Cc1nc(-c2ccc(F)cc2)sc1CCNC(=O)c1ccco1 | 5.62 µM [falling, single point] |  |
| COc1cc(NC(=O)Cn2c(C)cc3ccccc3c2=O)cc(OC)c1OC |  | 0.282 µM [rising, full curve, poor fit] |
| CN1c2ccccc2Oc2nnc(N3CCN(Cc4ccccc4)CC3)cc21 | 6.31 µM [falling, full curve] | 8.91 µM [falling, partial curve] |
| CCOC(=O)c1cc(-c2ccccc2)n(CCCC(=O)Nc2cccc(Cl)c2C)c1C | 35.5 µM [falling, single point] |  |
| O=C(NNS(=O)(=O)c1ccc2ccccc2c1)c1cccs1 | 35.5 µM [rising, single point] |  |
| CC(C)(C)NC(=O)c1cccc(NC(=O)CSc2ccc(Cl)cc2)c1 | 35.5 µM [rising, single point] |  |
| COc1ccccc1NC(=O)Nc1nc(-c2cccnc2)nc2ccccc12 | 3.16 µM [falling, single point] | 5.62 µM [falling, single point] |
| CC(C)Cc1nc(N2CCN(C(=O)c3ccccc3)CC2)c(C#N)c2c1CCC2 | 15.8 µM [falling, partial curve] | 22.4 µM [falling, single point] |
| CCN(CC)c1ccc(/C=C(\C#N)C(=O)NCc2ccccc2)cc1 | 0.0158 µM [rising, full curve, poor fit] |  |
| Cn1c(=O)c2c(nc(N3CCOCC3)n2CCCNC2=NCCC2)n(C)c1=O | 0.0251 µM [falling, full curve, poor fit] |  |
| Cc1ccccc1-n1nc(C)c2cc(C(=O)N3CCOCC3)sc21 | 35.5 µM [rising, single point] | 35.5 µM [rising, single point] |
| COc1ccc(C(=O)N/N=C(\c2ccccc2)c2ccccn2)cc1 | 3.16 µM [rising, full curve] | 2.24 µM [rising, full curve, poor fit] |
| Cc1ccc(S(=O)(=O)N/N=C/c2cc([N+](=O)[O-])ccc2O)cc1[N+](=O)[O-] |  | 4.47 µM [rising, full curve] |
| O=C(NCC1(c2ccccc2)CCCC1)c1ccccc1Br | 14.1 µM [rising, partial curve, poor fit] | 10 µM [rising, partial curve, poor fit] |
| Cc1csc(NC(=O)Cc2coc3cc(C)c(C(C)C)cc23)n1 | 6.31 µM [rising, full curve] |  |
| N#Cc1nc(COc2ccc(Br)cc2)oc1NCCN1CCOCC1 | 31.6 µM [rising, single point] | 31.6 µM [rising, single point] |
| COc1ccccc1N1CCN(C(=O)c2oc3ccc(F)cc3c2C)CC1 | 1 µM [rising, full curve] |  |
| Cc1ccc(C)c(NC(=S)NC(C)C(c2cccs2)N2CCOCC2)c1 (stereo not given) | 0.631 µM [falling, partial curve, poor fit] |  |

| Structure (SMILES) | AC50 [1] | AC50 [2] |
| --- | --- | --- |
| CCOC(=O)c1[nH]c(C)c(CCC(=O)Nc2ccc(N(CC)CC)cc2C)c1C | 4.47 µM [falling, partial curve, poor fit] |  |
| Oc1ccc(/C=N/Nc2nccnc2Cl)c(O)c1 |  | 5.01 µM [falling, full curve, poor fit] |
| CCOc1ccc(CCNc2nc3c(c(=O)n(C)c(=O)n3C)n2CC)cc1OCC | 5.62 µM [rising, single point] |  |
| Cc1ccc(C)c(C(C)NC(=O)C2C3CCC(O3)C2C(=O)O)c1 (stereo not given) | 5.62 µM [falling, single point] |  |
| CCS(=O)(=O)N1CC(=O)N(c2cccc(C)c2C)C(C)(C(=O)NC2CCCCC2)C1 (stereo not given) | 0.794 µM [rising, full curve, poor fit] | 1 µM [rising, full curve] |
| CC(=O)OC(C(=O)NCS(=O)(=O)c1ccc(C)cc1)c1cccnc1 (stereo not given) | 2 µM [falling, partial curve, poor fit] |  |
| CCCCc1ccc(NC(=O)COc2cccc3c(=O)n(C)ccc23)cc1 | 22.4 µM [falling, partial curve, poor fit] |  |
| Cc1cc(C(=O)OCC(=O)N2CCN(C(=O)c3ccco3)CC2)c(C)n1-c1ccc(F)cc1 | 14.1 µM [rising, partial curve] |  |
| O=C(CSc1nnc(COc2ccc(Cl)cc2)o1)N1CCN(c2ccccc2)CC1 | 3.55 µM [falling, single point] | 3.98 µM [falling, single point] |
| NC(=O)c1c(NC(=O)CSc2nnc(Cc3ccccc3)n2Cc2ccco2)sc2c1CCC2 | 12.6 µM [rising, partial curve] | 15.8 µM [rising, partial curve] |
| Cc1ccc(NC(=O)N2CCC(CN3CCC(C)CC3)CC2)cc1F | 0.891 µM [falling, full curve, poor fit] | 0.891 µM [falling, full curve, poor fit] |
| N=c1c2c(-c3ccccc3)c(-c3ccccc3)n(Cc3ccco3)c2ncn1Cc1ccco1 | 35.5 µM [falling, single point] | 35.5 µM [falling, single point] |
| COc1ccc2oc(-c3ccccc3)c(C(N)=O)c2c1 | 8.91 µM [rising, partial curve] |  |
| C=CCCCCc1nc2ccccc2c(=O)n1N | 0.794 µM [rising, partial curve] | 0.282 µM [rising, partial curve] |
| O=c1c(O)c(-c2ccccc2)oc2cccc(O)c12 | 35.5 µM [falling, single point] |  |
| Cc1cc(/C=C\c2ccc3cc(N(C)C)ccc3[n+]2C)c(C)n1-c1ccccc1 | 12.6 µM [rising, partial curve] | 10 µM [falling, partial curve, poor fit] |
| O=C(c1ccco1)N1CCN(CCCCOc2cccc3ccccc23)CC1 | 17.8 µM [rising, single point] | 22.4 µM [rising, single point] |

2 of the compounds above, as labelled records:
CCOC(=O)c1cc(-c2ccccc2)n(CCCC(=O)Nc2cccc(Cl)c2C)c1C
  AC50 [1]: 35.5 µM [falling, single point]
O=C(NNS(=O)(=O)c1ccc2ccccc2c1)c1cccs1
  AC50 [1]: 35.5 µM [rising, single point]
